Assay results taken from patent US8273855.
Results are given in words; binding and its absence hold for the method and conditions named. In cells and extracts the contact can be indirect. Some results given as binding are weak or reduced against the parent protein; the word gives no strength.

The chains behind the UniProt entries cited, without tags or fusion partners. Residues count along the entry.
UniProt Q07008, residues 19-2531: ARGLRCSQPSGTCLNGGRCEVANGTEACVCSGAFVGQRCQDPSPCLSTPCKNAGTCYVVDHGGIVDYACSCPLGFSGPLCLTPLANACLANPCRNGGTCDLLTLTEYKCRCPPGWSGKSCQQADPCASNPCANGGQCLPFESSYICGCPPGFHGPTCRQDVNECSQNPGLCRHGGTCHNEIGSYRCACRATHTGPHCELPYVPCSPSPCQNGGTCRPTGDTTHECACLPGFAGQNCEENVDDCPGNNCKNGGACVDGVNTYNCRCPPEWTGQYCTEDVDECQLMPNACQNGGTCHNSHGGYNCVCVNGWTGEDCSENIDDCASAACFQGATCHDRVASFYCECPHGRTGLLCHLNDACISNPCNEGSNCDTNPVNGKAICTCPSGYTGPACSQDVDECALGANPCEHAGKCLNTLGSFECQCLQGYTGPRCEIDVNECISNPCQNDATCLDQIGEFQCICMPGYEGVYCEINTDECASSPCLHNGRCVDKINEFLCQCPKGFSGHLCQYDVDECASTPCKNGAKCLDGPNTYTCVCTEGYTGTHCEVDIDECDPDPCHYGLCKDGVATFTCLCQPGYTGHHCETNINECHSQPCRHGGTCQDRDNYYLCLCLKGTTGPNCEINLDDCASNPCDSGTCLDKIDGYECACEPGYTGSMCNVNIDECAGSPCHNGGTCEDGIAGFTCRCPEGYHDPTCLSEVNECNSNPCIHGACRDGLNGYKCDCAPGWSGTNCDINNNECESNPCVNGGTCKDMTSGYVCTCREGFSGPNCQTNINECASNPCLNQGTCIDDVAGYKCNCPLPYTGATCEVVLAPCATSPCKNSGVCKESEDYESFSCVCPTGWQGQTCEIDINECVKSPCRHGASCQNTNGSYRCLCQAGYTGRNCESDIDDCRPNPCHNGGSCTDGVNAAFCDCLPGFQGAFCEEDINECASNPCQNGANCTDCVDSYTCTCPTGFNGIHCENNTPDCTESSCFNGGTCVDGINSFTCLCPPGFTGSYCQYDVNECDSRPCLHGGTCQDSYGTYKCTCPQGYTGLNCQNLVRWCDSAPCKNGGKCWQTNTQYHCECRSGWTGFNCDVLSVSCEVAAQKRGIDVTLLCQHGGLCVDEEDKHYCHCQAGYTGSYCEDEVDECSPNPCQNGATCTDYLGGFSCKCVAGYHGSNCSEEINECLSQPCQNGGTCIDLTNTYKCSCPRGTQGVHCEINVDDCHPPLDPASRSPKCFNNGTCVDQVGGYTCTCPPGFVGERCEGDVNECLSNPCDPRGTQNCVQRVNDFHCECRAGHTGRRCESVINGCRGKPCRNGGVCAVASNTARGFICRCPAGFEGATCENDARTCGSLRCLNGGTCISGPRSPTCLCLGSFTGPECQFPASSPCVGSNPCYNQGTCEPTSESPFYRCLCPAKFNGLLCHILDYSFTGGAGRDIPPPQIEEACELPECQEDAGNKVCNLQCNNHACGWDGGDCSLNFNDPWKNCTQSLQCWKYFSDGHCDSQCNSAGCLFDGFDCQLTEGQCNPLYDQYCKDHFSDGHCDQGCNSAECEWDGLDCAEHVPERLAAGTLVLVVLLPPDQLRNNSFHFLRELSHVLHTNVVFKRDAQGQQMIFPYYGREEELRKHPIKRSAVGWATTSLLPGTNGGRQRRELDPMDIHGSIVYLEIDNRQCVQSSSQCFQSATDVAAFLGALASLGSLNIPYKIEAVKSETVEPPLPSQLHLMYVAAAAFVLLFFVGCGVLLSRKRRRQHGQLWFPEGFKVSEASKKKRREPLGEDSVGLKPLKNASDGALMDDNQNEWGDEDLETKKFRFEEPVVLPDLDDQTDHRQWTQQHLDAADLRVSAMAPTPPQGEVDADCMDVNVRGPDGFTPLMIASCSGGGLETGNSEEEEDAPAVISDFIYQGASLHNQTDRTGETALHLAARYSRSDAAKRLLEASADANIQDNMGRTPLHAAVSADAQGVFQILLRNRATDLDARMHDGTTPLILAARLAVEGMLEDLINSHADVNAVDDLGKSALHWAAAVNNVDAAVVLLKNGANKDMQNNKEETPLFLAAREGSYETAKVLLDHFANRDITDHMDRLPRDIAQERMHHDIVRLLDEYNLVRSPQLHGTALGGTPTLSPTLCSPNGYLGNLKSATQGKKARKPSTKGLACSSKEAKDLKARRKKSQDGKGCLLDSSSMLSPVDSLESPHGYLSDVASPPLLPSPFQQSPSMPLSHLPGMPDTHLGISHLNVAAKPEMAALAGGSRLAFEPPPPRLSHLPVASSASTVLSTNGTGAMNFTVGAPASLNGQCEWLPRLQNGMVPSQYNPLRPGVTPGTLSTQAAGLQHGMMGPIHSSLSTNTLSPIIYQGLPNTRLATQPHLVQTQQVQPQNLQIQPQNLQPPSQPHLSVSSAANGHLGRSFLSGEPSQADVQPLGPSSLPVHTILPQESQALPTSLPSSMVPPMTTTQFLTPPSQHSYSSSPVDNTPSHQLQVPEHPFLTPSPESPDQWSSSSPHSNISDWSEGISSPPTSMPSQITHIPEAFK

Columns and labels:
[1] = biological target: Notch1 (native, rat brain) (rat) (UniProt Q07008); test: co-immunoprecipitation from rat brain lysates (legend of FIG. 23)
[2] = biological target: Notch1 (native, rat brain) (rat) (UniProt Q07008); test: co-immunoprecipitation from adult rat brain membrane extracts
[3] = biological target: Notch1 (native, rat brain) (rat) (UniProt Q07008); test: co-immunoprecipitation from rat brain membrane preparations in 2% Triton X-100
[4] = biological target: Notch1 (native, rat brain) (rat) (UniProt Q07008); test: co-immunoprecipitation from P0 rat brain membrane extracts
[5] = biological target: Notch1 (native, rat brain) (rat) (UniProt Q07008); test: co-immunoprecipitation from rat brain lysates (legend of FIG. 10)
[6] = biological target: Notch1 (native, rat brain) (rat) (UniProt Q07008); test: co-immunoprecipitation from rat brain lysates (legend of FIG. 23, second printing)
[7] = biological target: Notch1 (native, rat brain) (rat) (UniProt Q07008); test: co-immunoprecipitation from rat brain lysates (legend of FIG. 10, second printing)

Measured: binding

B1: NB-3 (native, rat brain) (ligand, UniProt P97528 20-999, looked up)
chain: ESRFTRPIFIQEPQDVIFPLDLSRSEIILSCTASGYPSPHYRWKQNGTDIDFSMTYHYRLDGGSLAISSPRTDQDIGIYQCLATNPVGTILSRKAKLQFAYIEDFETKSRSTVSVREGQGVVLLCGPPPHFGELSYDWTFNDNPLYVQEDKRRFVSQNTGNLYIAKVEPSDVGNYTCFVTNKEAHRSVQGPPTPLVQRTDGVMGEYEPKIEVRFPETIQAAKDSSVKLECFALGNPVPDISWRRLDGSPMPGKVKYSNSQATLEIPKFQQEDEGFYECVAGNLRGRNLAKGQLIFYAPPEWEQKIQNTYLSIYDSLFWECKASGNPNPSYTWLKNGERLNTEERIQTENGTLIITMLNVSDSGIYQCAAENKYQTIYANAELRVLASAPDFSKNPIKKISVVQVGGDISIECKPNAFPKASISWKRGTENLKQSKRVFFLEDGSLKICNVTRSDAGSYTCVATNQFGNGKSSGSLIVKERTVITVPPSKMDVTVGESIVLPCQVSHDPTMEVLFVWYFNGDVIDLKKGVAHFERIGGESVGDLMIRNIQLGHSGKYLCTVQTTLERLSAVADIIVRGPPGPPEDVKVEHISSTTSQLSWRPGPDNNSPIQIFTIQTRTPFSVGWQAVATVPEILNGQTYNATVIGLSPWVEYEFRVVAGNNIGIGEPSKPSELLRTKASIPNVAPVNINGGGGSRSELVITWEPIPEELQNGEGFGYIIMFRPVGSTTWMKEKVALVESSKFIYRNESIMPLSPFEVKVGVYNNEGEGSLSTVSIVYSGEDEPRLAPRGTSVQSFSASDMEVSWNAIAWNRNTGRVLGYEVLYWTDNSKESMIGKIRVSGNVTTKNITGLRANTIYFASVRAYNTAGTGPSSPPVNVTTKKSPPSQPPANIAWKLSNSKLCLNWEHVKTMENESEVLGYKILYRQNRQSKTHVLETNNTSAELLVPFEEDYLIEIRTVSDGGDGSSSEEIRIPKMSSLSS
binds: all assays above
